Counter-ions that a name gives are not always drawn. ± gives the standard deviation of the averaged measurements. This is one part of the list. Repeats in this data set agree poorly, so a single value says little.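 The A. baumannii strains are clinical isolates chosen because they resist the partner antibiotic, and the screen looks for drugs that restore that antibiotic's effect. The reading at the start of incubation is subtracted to remove background from coloured compounds.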
Tests used:
[1] = test system: Acinetobacter baumannii WP-487; test: percent growth inhibition of drug alone vs DMSO control; higher = more growth inhibition; conditions: antibiotic (0.125x MIC): none (0.1% DMSO)
[2] = test system: Acinetobacter baumannii WP-487; test: percent growth inhibition of drug + antibiotic vs DMSO control; higher = more growth inhibition; conditions: antibiotic (0.125x MIC): colistin

`CSc1ccc2c(c1)C(N1CCN(C)CC1)Cc1ccccc1S2` (centres undefined) [Methiothepin maleate] was tested, and the “percent growth inhibition of drug alone” value ([1]; 7 µM) was 6.31 ± 2%, the “percent growth inhibition of drug alone” value ([1]; 20 µM) was -0.982 ± 5.6% and the percent growth inhibition ([2]; 7 µM) was 55.9 ± 51%. The percent growth inhibition ([2]; 20 µM) was 51.6 ± 56%.
With `Clc1ccccc1C(c1ccccc1)(c1ccccc1)n1ccnc1` [Clotrimazole] the “percent growth inhibition of drug alone” value ([1]; 7 µM) was -2.86 ± 4.7%, the “percent growth inhibition of drug alone” value ([1]; 20 µM) was -5.99 ± 0.06% and the percent growth inhibition ([2]; 7 µM) was 52.5 ± 55%. The percent growth inhibition ([2]; 20 µM) was 52.7 ± 54%.
With `Nc1ccc(S(=O)(=O)Nc2ccc(Cl)nn2)cc1` [Sulfachloropyridazine] the “percent growth inhibition of drug alone” value ([1]; 7 µM) was 8.25 ± 1.5%, the “percent growth inhibition of drug alone” value ([1]; 20 µM) was 52.9 ± 56% and the percent growth inhibition ([2]; 7 µM) was -0.365 ± 12%. It also gave a percent growth inhibition ([2]; 20 µM) of 46.6 ± 68%.
For `COc1cccc2c1C(=O)c1c(O)c3c(c(O)c1C2=O)C[C@@](O)(C(C)=O)C[C@@H]3O[C@H]1C[C@H](N)[C@H](O)[C@H](C)O1` [Daunorubicin hydrochloride], the “percent growth inhibition of drug alone” value ([1]; 7 µM) was 2.62 ± 7.4%, the “percent growth inhibition of drug alone” value ([1]; 20 µM) was 15.1 ± 22% and the percent growth inhibition ([2]; 7 µM) was 2.11 ± 0.29%. The percent growth inhibition ([2]; 20 µM) was 91.8 ± 8.1%.
`CSc1ccc2c(c1)N(CCC1CCCCN1C)c1ccccc1S2` (centres undefined) [Thioridazine hydrochloride] was tested, and the “percent growth inhibition of drug alone” value ([1]; 7 µM) was 8.35 ± 3.5%, the “percent growth inhibition of drug alone” value ([1]; 20 µM) was 4.22 ± 4.2% and the percent growth inhibition ([2]; 7 µM) was 65.7 ± 40%. The percent growth inhibition ([2]; 20 µM) was 55 ± 52%.
`CC(C)COCC(CN(Cc1ccccc1)c1ccccc1)N1CCCC1` (centres undefined) [Bepridil hydrochloride] was tested, and the “percent growth inhibition of drug alone” value ([1]; 7 µM) was -0.914 ± 8.3% and the “percent growth inhibition of drug alone” value ([1]; 20 µM) was -2.11 ± 0.053%.
In the case of `O=C1NCCN1CCN1CCC(c2cn(-c3ccc(F)cc3)c3ccc(Cl)cc23)CC1` [Sertindole], the “percent growth inhibition of drug alone” value ([1]; 7 µM) is reported as 2.29 ± 5.7%, the “percent growth inhibition of drug alone” value ([1]; 20 µM) is reported as 11.9 ± 17% and the percent growth inhibition ([2]; 7 µM) is reported as 51.3 ± 56%. For the same compound, the percent growth inhibition ([2]; 20 µM) was 57 ± 50%.
`CN(C)CCCN1c2ccccc2CCc2ccc(Cl)cc21` [Clomipramine hydrochloride] was tested, and the “percent growth inhibition of drug alone” value ([1]; 7 µM) was -0.466 ± 9.5%, the “percent growth inhibition of drug alone” value ([1]; 20 µM) was 0.396 ± 2.2% and the percent growth inhibition ([2]; 7 µM) was 13 ± 16%. For the same compound, the percent growth inhibition ([2]; 20 µM) was 60 ± 56%.
For `CN[C@H]1CC[C@@H](c2ccc(Cl)c(Cl)c2)c2ccccc21` [Sertraline], the “percent growth inhibition of drug alone” value ([1]; 7 µM) was 3.51 ± 2% and the “percent growth inhibition of drug alone” value ([1]; 20 µM) was 3.8 ± 0.37%.
For `Cc1cccc(C)c1NC(=O)C(C)N` (centres undefined) [Tocainide hydrochloride], the “percent growth inhibition of drug alone” value ([1]; 7 µM) was 7.67 ± 3.5%, the “percent growth inhibition of drug alone” value ([1]; 20 µM) was 5.58 ± 12% and the percent growth inhibition ([2]; 7 µM) was -3.91 ± 5%. The percent growth inhibition ([2]; 20 µM) was 45.7 ± 66%.
In the case of `CCCCc1cc2ccccc2c(OCCN(C)C)n1` [Dimethisoquin hydrochloride], the “percent growth inhibition of drug alone” value ([1]; 7 µM) is reported as 0.337 ± 8.5% and the “percent growth inhibition of drug alone” value ([1]; 20 µM) is reported as 5.4 ± 6.9%.
`CO[C@@H]1[C@@H](O[C@@H]2O[C@H](C)[C@@H](O[C@H]3C[C@@](C)(O)[C@@H](OC(=O)CC(C)C)[C@H](C)O3)[C@H](N(C)C)[C@H]2O)[C@@H](CC=O)C[C@@H](C)[C@@H](O)/C=C/C=C/C[C@@H](C)OC(=O)C[C@H]1OC(C)=O` [Josamycin] was tested, and the “percent growth inhibition of drug alone” value ([1]; 7 µM) was 7.61 ± 4.7% and the “percent growth inhibition of drug alone” value ([1]; 20 µM) was 14.3 ± 2.8%.
For `CO[C@H]1C[C@H](O[C@H]2[C@H](C)[C@@H](O[C@@H]3O[C@H](C)C[C@H](N(C)C)[C@H]3OC(C)=O)[C@@H](C)C[C@@]3(CO3)C(=O)[C@H](C)[C@@H](OC(C)=O)[C@@H](C)[C@@H](C)OC(=O)[C@@H]2C)O[C@@H](C)[C@@H]1OC(C)=O` [Troleandomycin], the “percent growth inhibition of drug alone” value ([1]; 7 µM) was 2.35 ± 5% and the “percent growth inhibition of drug alone” value ([1]; 20 µM) was 18.8 ± 19%.
For `CCSc1ccc2c(c1)N(CCCN1CCN(C)CC1)c1ccccc1S2` [Thiethylperazine dimalate], the “percent growth inhibition of drug alone” value ([1]; 7 µM) was -0.284 ± 8%, the “percent growth inhibition of drug alone” value ([1]; 20 µM) was 7.9 ± 9.1% and the percent growth inhibition ([2]; 7 µM) was 51 ± 56%. For the same compound, the percent growth inhibition ([2]; 20 µM) was 53.2 ± 54%.
With `c1ccc(-c2ccc(C(c3ccccc3)n3ccnc3)cc2)cc1` (centres undefined) [Bifonazole] the “percent growth inhibition of drug alone” value ([1]; 7 µM) was 1.34 ± 1.7% and the “percent growth inhibition of drug alone” value ([1]; 20 µM) was 12.5 ± 18%.
For `CN(Cc1cc(Br)cc(Br)c1N)C1CCCCC1` [Bromhexine hydrochloride], the “percent growth inhibition of drug alone” value ([1]; 7 µM) was 11 ± 10%, the “percent growth inhibition of drug alone” value ([1]; 20 µM) was 10.3 ± 12% and the percent growth inhibition ([2]; 7 µM) was -0.256 ± 2.7%. For the same compound, the percent growth inhibition ([2]; 20 µM) was 52.3 ± 68%.
`CCCCC(=O)O[C@H]1CC[C@H]2[C@@H]3CCc4cc(O)ccc4[C@H]3CC[C@]12C` [Estradiol Valerate] was tested, and the “percent growth inhibition of drug alone” value ([1]; 7 µM) was 2.65 ± 0.78%, the “percent growth inhibition of drug alone” value ([1]; 20 µM) was 6.88 ± 2.5% and the percent growth inhibition ([2]; 7 µM) was 47 ± 61%. The percent growth inhibition ([2]; 20 µM) was 45.8 ± 63%.
In the case of `NC[C@@H]1O[C@H](O[C@H]2[C@@H](O)[C@H](O[C@@H]3[C@@H](O)[C@H](N)C[C@H](N)[C@H]3O[C@H]3O[C@H](CO)[C@@H](O)[C@H](O)[C@H]3N)O[C@@H]2CO)[C@H](N)[C@@H](O)[C@@H]1O` [Paromomycin sulfate], the “percent growth inhibition of drug alone” value ([1]; 7 µM) is reported as 8.68 ± 0.36% and the “percent growth inhibition of drug alone” value ([1]; 20 µM) is reported as 18.9 ± 26%.
In the case of `CN[C@H](CC(C)C)C(=O)N[C@H]1C(=O)N[C@@H](CC(N)=O)C(=O)N[C@H]2C(=O)N[C@H]3C(=O)N[C@H](C(=O)N[C@H](C(=O)O)c4cc(O)cc(O)c4-c4cc3ccc4O)[C@H](O)c3ccc(c(Cl)c3)Oc3cc2cc(c3O[C@@H]2O[C@H](CO)[C@@H](O)[C@H](O)[C@H]2O[C@H]2C[C@](C)(N)[C@H](O)[C@H](C)O2)Oc2ccc(cc2Cl)[C@H]1O` [Vancomycin hydrochloride], the “percent growth inhibition of drug alone” value ([1]; 7 µM) is reported as -0.122 ± 3.9% and the “percent growth inhibition of drug alone” value ([1]; 20 µM) is reported as 2.39 ± 3.2%.
For `C1CCC(C(CC2CCCCN2)C2CCCCC2)CC1` (centres undefined) [Perhexiline maleate], the “percent growth inhibition of drug alone” value ([1]; 7 µM) was 0.0517 ± 4.6%, the “percent growth inhibition of drug alone” value ([1]; 20 µM) was -2.93 ± 0.15% and the percent growth inhibition ([2]; 7 µM) was 56 ± 51%. The percent growth inhibition ([2]; 20 µM) was 60.6 ± 45%.
With `Cc1cccc(CN2CCN(C(c3ccccc3)c3ccc(Cl)cc3)CC2)c1` (centres undefined) [Meclozine dihydrochloride] the “percent growth inhibition of drug alone” value ([1]; 7 µM) was 0.34 ± 9.2%, the “percent growth inhibition of drug alone” value ([1]; 20 µM) was 4.44 ± 4.6% and the percent growth inhibition ([2]; 7 µM) was 25 ± 30%. The percent growth inhibition ([2]; 20 µM) was 53.9 ± 65%.
In the case of `CC(C)(C)CC(C)(C)c1ccc(OCCOCC[N+](C)(C)Cc2ccccc2)cc1` [Benzethonium chloride], the “percent growth inhibition of drug alone” value ([1]; 7 µM) is reported as -2.36 ± 9.7% and the “percent growth inhibition of drug alone” value ([1]; 20 µM) is reported as 1.23 ± 3.8%.
In the case of `CS(=O)(=O)c1ccc([C@@H](O)[C@@H](CF)NC(=O)C(Cl)Cl)cc1` [Florfenicol], the “percent growth inhibition of drug alone” value ([1]; 7 µM) is reported as 9.22 ± 4.8%, the “percent growth inhibition of drug alone” value ([1]; 20 µM) is reported as 59.4 ± 34% and the percent growth inhibition ([2]; 7 µM) is reported as 62.6 ± 50%. For the same compound, the percent growth inhibition ([2]; 20 µM) was 97 ± 4.4%.
For `CC/C(=C(/CC)c1ccc(O)cc1)c1ccc(O)cc1` [Diethylstilbestrol], the “percent growth inhibition of drug alone” value ([1]; 7 µM) was 1.56 ± 7.9% and the “percent growth inhibition of drug alone” value ([1]; 20 µM) was 0.398 ± 0.9%.
For `C#C[C@]1(O)CC[C@H]2[C@@H]3CCC4=Cc5oncc5C[C@]4(C)[C@H]3CC[C@@]21C` [Danazol], the “percent growth inhibition of drug alone” value ([1]; 7 µM) was -3.94 ± 8.8% and the “percent growth inhibition of drug alone” value ([1]; 20 µM) was -0.489 ± 0.91%.
In the case of `COc1ccc(CN2CCN(C(c3ccc(F)cc3)c3ccc(F)cc3)CC2)c(OC)c1OC` [Lomerizine hydrochloride], the “percent growth inhibition of drug alone” value ([1]; 7 µM) is reported as 3.13 ± 4.9%, the “percent growth inhibition of drug alone” value ([1]; 20 µM) is reported as 5.88 ± 7.1% and the percent growth inhibition ([2]; 7 µM) is reported as 1.32 ± 6.9%. It also gave a percent growth inhibition ([2]; 20 µM) of 54.6 ± 64%.
For `Nc1ccc(S(=O)(=O)Nc2ccccn2)cc1` [Sulfapyridine], the percent growth inhibition ([2]; 7 µM) was 6.28 ± 1% and the percent growth inhibition ([2]; 20 µM) was 46.5 ± 69%.

— the supplement of paper PMC6658780
